Results published in PubChem BioAssay AID493014 (National Center for Advancing Translational Sciences (NCATS), 2011).
The other results are listed elsewhere or left out. The main result of the screen is listed elsewhere. These columns were measured beside it and carry no call. Compounds called inactive in the main read-out are mostly missing here. Potencies come from curve fits of mixed quality, noted in brackets.

Experiment: qHTS Assay to Find Inhibitors of Chronic Active B-Cell Receptor Signaling
Details: ABC-DLBCL IkBa-CBG/CBR reporter, luminescence ratio (green luciferase fused to IkBa over red control in TMD8 lymphoma cells), 4 h
Method in brief: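 Doxycycline induced both beetle luciferases in TMD8 lymphoma cells; IKK-driven degradation limits the IkappaBalpha-fused green signal, while red luminescence normalises for cell number and nonspecific effects. Compounds tested up to 46 uM, 4 hrs.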

[1] = measured here: CBR red luminescence, cell number

Cc1nc2cc(-c3ccc(Br)cc3)[nH]n2c(=O)c1Cl
AC50 [1]: 2 µM [falling, full curve]

CCOc1ccc(Nc2nc(Cc3nnc(SCC(N)=O)o3)cs2)cc1
AC50 [1]: 29.1 µM [falling, single point]

O=C(Nc1ccc(N2CCCCC2)cc1)c1cccnc1
AC50 [1]: 23.1 µM [falling, single point]

Fc1ccc(Oc2nc(-c3ccccn3)nc3ccccc23)cc1
AC50 [1]: 35.5 µM [falling, single point]

O=C(COC(=O)c1cc(Br)ccc1O)NNC(=O)c1ccc(Cl)cc1
AC50 [1]: 2.59 µM [rising, full curve, poor fit]

O=C(NNc1nc2ccccc2s1)Nc1ccc(F)cc1
AC50 [1]: 15.8 µM [falling, partial curve, poor fit]

O=C(NC1CCCCCC1)c1ccc(S(=O)(=O)NCc2ccco2)cc1
AC50 [1]: 29.1 µM [rising, single point]

Cc1ccc(-n2ncc3c(N4CCC5(CC4)OCCO5)ncnc32)c(C)c1
AC50 [1]: 10.3 µM [falling, single point]

Cc1c(Nc2nc(-c3ccc(Cl)cc3)cs2)c(=O)n(-c2ccccc2)n1C
AC50 [1]: 8.2 µM [falling, partial curve]

COc1cc2c(cc1OC)C1(C)N(CC2)C(C(C)=O)=NN1c1ccc(Cl)cc1 (centres undefined)
AC50 [1]: 35.5 µM [falling, single point]

COc1ccc(C2(C)NC(=O)N(CC(=O)c3cc(C)n(C4CC4)c3C)C2=O)cc1 (centres undefined)
AC50 [1]: 20.6 µM [rising, single point]

CCOC(=O)C1(CCCc2ccccc2)CCN(C2CCSCC2)CC1
AC50 [1]: 35.5 µM [rising, single point] | AC50 (measured here: IkBa-CBG green luminescence): 35.5 µM [falling, single point]

CC(=O)Nc1ccc(S(=O)(=O)Nc2cc(C)ccn2)cc1
AC50 [1]: 35.5 µM [falling, single point]

O=c1c2oc3nc4c(cc3c2ncn1CCCc1ccccc1)CCCC4
AC50 [1]: 17.8 µM [rising, partial curve, poor fit]

CCCn1cc(CN2CCN(Cc3ccc(C)o3)C(CCO)C2)c(C)n1 (centres undefined)
AC50 [1]: 10 µM [rising, partial curve, poor fit]

CC1CCN(Cc2cc(=O)oc3cc4c(cc23)CCCC4)CC1
AC50 [1]: 20 µM [rising, partial curve, poor fit]

COC(=O)N/N=C/c1cn(Cc2c(Cl)cccc2Cl)c2ccccc12
AC50 [1]: 29.1 µM [falling, single point]

CCc1ccc(CCC(=O)Nc2nccs2)o1
AC50 [1]: 18.4 µM [falling, partial curve]
